{"source": "patent US7897741B2", "about": "“Cell cycle phase markers” (GE Healthcare UK Limited, priority 2004, dated 2011)", "tested_on": "U2OS stable cells expressing the pCORON1002-EGFP-C1-PSLD construct", "assay": "Chemical cell cycle block studies on EGFP-PSLD stable cell line (IN Cell Analyzer imaging)", "assay_type": "cell-based, human", "conditions": "EGFP-PSLD stable cell lines; refers to Table 1", "protocol": "Stable cells expressing the pCORON1002-EGFP-C1-PSLD construct, were seeded at 0.3×10^5/ml in 96-well Greiner plates using antibiotic-free medium (100 μl/well) and incubate for 16 hours.\nFor chemical block studies (Table 1), stable cells were exposed to olomoucine, roscovitine, nocodazole, mimosine, colcemid or colchicine (Sigma). Cells were fixed in 2% formalin and nuclei stained with hoechst (2 μM).\nAfter high throughput imaging and analysis on the IN Cell Analyzer system (GEHC), data for average nuclear intensity and N:C ratio (EGFP signal), nuclear size (hoescht signal) and, where appropriate, nuclear signal intensity (BrdU) were obtained for the total number of individual cells in a field of view using hoescht as a nuclear mask and the IN Cell Analyzer 3000 cell cycle phase marker algorithm (GEHC). For each well, the total number of cells per field of view were catagorised into G1-phase (predominantly nuclear EGFP distribution; high EGFP-PSLD nuclear intensity and N:C ratio), S-phase (nuclear BrdU signal >3SDs above background; EGFP-PSLD N:C ratio around 1) and G2-phase (large nuclear size; low EGFP-PSLD N:C ratio).", "note": "For at least one compound, name, drawing or mass did not settle the structure."}
{"smiles": "Cn1cnc2c(NCc3ccccc3)nc(NCCO)nc21", "note": "[Olomoucine]", "values": [{"measurement": "EGFP-PSLD distribution and cell cycle arrest", "value": "predominantly nuclear distribution of EGFP-PSLD and arrest in G1"}]}
